{"source": "patent US6274134A", "about": "“Human cell adhesion protein AAMP-1 and uses thereof” (National Institutes of Health, priority 1993, dated 2001)", "key": {"[1]": {"test": "H3-heparin binding assay, solubilized P189 immobilized on CovaLink plates", "conditions": "tritiated heparin 50 U/mL"}, "[2]": {"system": "A2058 human melanoma cells", "test": "Cell aggregation assay", "type": "cell-based", "conditions": "for cell aggregation (groups of 10 or more tightly clustered cells): peptide incubated with cell suspension"}, "[3]": {"system": "A2058 human melanoma cells", "test": "Cell adhesion assay on peptides linked to CovaLink plates", "type": "cell-based", "conditions": "for cell binding, adherent cells dye retention: peptide at 7.2 uM, S.D., each O.D. unit approx. 100,000 attached cells"}, "[4]": {"test": "H3-heparin binding assay, aggregated P189 in 0.1% BSA-DMEM", "conditions": "tritiated heparin 0.05 U/mL"}}, "note": "Part of at least one peptide drawing is inferred or uncertain, most often the ends. Ends that are not written are not given here.", "data": [{"sequence": "RRLRRMESESES [Peptide P189]", "values": [{"measurement": "tritiated heparin binding competed with equal amount of unlabeled heparin", "setting": "[1]; 1:1 unlabeled heparin, best assay", "value": 1423, "unit": "cpm/umole protein"}, {"measurement": "tritiated heparin binding, times more than background", "setting": "[1]; P189 6.25 ug/mL (0.3 ug per well), 2 assays", "value": "3.0+/-0.6 times"}, {"measurement": "tritiated heparin binding with no competition", "setting": "[1]; best assay", "value": 6035, "unit": "cpm/umole protein"}, {"measurement": "cell aggregating effect in presence of heparin", "setting": "[2]; heparin 5 U/mL, P189 200 ug/mL", "value": "totally abolished"}, {"measurement": "cell aggregation after treatment of cells with inhibitors of glycolysis and protein synthesis, or sugars", "setting": "[2]; methylmannopyranoside, galactose, N-acetyl-glucosamine, lactose, P189 200 ug/mL", "value": "not eliminated"}, {"measurement": "cell aggregation (groups of 10 or more tightly clustered cells)", "setting": "[2]", "value": "numerous, tightly clustered groups of 10 or more cells"}, {"measurement": "cell binding relative to that of P350", "setting": "[3]; half-strength DMEM (diluted with PBS) with 0.1% BSA", "value": 2.06, "unit": "times"}, {"measurement": "effect of increasing heparin concentrations on cell binding", "setting": "[3]; heparin added in wash after peptide linkage", "value": "progressively inhibited"}, {"measurement": "cell binding, adherent cells dye retention", "setting": "[3]", "value": "0.708+/-0.104 units O.D."}, {"measurement": "cell binding, % less than cell binding to scrambled peptide (P350)", "setting": "[3]; plates incubated with 100 U/mL of heparin", "value": 30, "unit": "%"}, {"measurement": "cell binding as % of cell binding to P189 plates never exposed to heparin", "setting": "[3]; plates previously incubated with heparin at 50 U/mL", "value": 49, "unit": "%"}, {"measurement": "average tritiated heparin binding above background, no competition", "setting": "[4]; P189 200 ug/mL aggregates", "value": "5567+/-189 cpm/umole protein"}, {"measurement": "average tritiated heparin binding above background, unlabeled heparin present (1:1 competition)", "setting": "[4]; P189 200 ug/mL aggregates", "value": "2495+/-320 cpm/umole protein"}, {"measurement": "reduction in counts in the presence of an equal amount of unlabeled heparin", "setting": "[4]; P189 200 ug/mL aggregates", "value": 55, "unit": "%"}, {"measurement": "tritiated heparin binding, times more than background", "setting": "[4]; P189 aggregates from 200 ug/mL, 2 assays", "value": "9.1+/-1.3 times"}]}, {"sequence": "MSRERESRERSL [Peptide P350, reference compound]", "values": [{"measurement": "cell aggregation (groups of 10 or more tightly clustered cells)", "setting": "[2]", "value": "no effect"}, {"measurement": "cell binding, % more than P189", "setting": "[3]; following the maximum heparin exposure shown for P189", "value": 30, "unit": "%"}, {"measurement": "cell binding, % less than P189", "setting": "[3]; no exposure to heparin", "value": 50, "unit": "%"}]}, {"sequence": "RRLRRMEAEAEA [Peptide P360, RRLRRMEAEAEA]", "values": [{"measurement": "cell aggregation (groups of 10 or more tightly clustered cells)", "setting": "[2]", "value": "bound cells more than the other variants lacking this motif"}, {"measurement": "cell binding, adherent cells dye retention", "setting": "[3]", "value": "0.645+/-0.60 units O.D."}]}, {"sequence": "RRGRRGESESES [Peptide P359, RRGRRGESESES]", "values": [{"measurement": "cell binding, adherent cells dye retention", "setting": "[3]", "value": "0.670+/-0.046 units O.D."}]}, {"sequence": "RRLRRMQSQSQS [Peptide P358, RRLRRMQSQSQS]", "values": [{"measurement": "cell aggregation (groups of 10 or more tightly clustered cells)", "setting": "[2]", "value": "bound cells more than the other variants lacking this motif"}, {"measurement": "cell binding, adherent cells dye retention", "setting": "[3]", "value": "0.710+/-0.013 units O.D."}]}]}
